Laboratory results: PMC3510188
These are yes or no findings as the source states them, for the method shown. Binding seen in cells or lysates may run through a third protein. Some results given as binding are weak or reduced against the parent protein; the word gives no strength.

Biological target: T1, Ndp52 (human (endogenous in A549)) (UniProt Q13137)
T1 sequence: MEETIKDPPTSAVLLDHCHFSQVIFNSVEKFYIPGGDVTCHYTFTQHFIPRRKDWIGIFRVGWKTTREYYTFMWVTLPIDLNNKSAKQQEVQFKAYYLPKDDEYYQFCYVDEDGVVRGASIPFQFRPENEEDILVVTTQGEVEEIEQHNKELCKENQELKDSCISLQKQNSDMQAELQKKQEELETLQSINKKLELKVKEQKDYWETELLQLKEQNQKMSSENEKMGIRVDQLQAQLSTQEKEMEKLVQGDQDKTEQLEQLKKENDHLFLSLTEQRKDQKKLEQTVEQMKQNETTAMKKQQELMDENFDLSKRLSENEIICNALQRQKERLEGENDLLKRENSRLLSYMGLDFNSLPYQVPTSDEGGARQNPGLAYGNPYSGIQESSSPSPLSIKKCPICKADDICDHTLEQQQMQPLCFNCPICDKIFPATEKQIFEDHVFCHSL
Assay: co-IP; exponentially growing A549 cells in the basal state lysed in IGEPAL IP buffer; endogenous proteins; immunoprecipitation for 4 hours with 1 µg anti-Ndp52 or non-specific rabbit IgG pre-bound to protein A/G agarose, three washes; blots

binding: binds
B1: TBK1 (TANK-binding kinase 1) (protein, UniProt Q9UHD2 1-729)
chain: MQSTSNHLWLLSDILGQGATANVFRGRHKKTGDLFAIKVFNNISFLRPVDVQMREFEVLKKLNHKNIVKLFAIEEETTTRHKVLIMEFCPCGSLYTVLEEPSNAYGLPESEFLIVLRDVVGGMNHLRENGIVHRDIKPGNIMRVIGEDGQSVYKLTDFGAARELEDDEQFVSLYGTEEYLHPDMYERAVLRKDHQKKYGATVDLWSIGVTFYHAATGSLPFRPFEGPRRNKEVMYKIITGKPSGAISGVQKAENGPIDWSGDMPVSCSLSRGLQVLLTPVLANILEADQEKCWGFDQFFAETSDILHRMVIHVFSLQQMTAHKIYIHSYNTATIFHELVYKQTKIISSNQELIYEGRRLVLEPGRLAQHFPKTTEENPIFVVSREPLNTIGLIYEKISLPKVHPRYDLDGDASMAKAITGVVCYACRIASTLLLYQELMRKGIRWLIELIKDDYNETVHKKTEVVITLDFCIRNIEKTVKVYEKLMKINLEAAELGEISDIHTKLLRLSSSQGTIETSLQDIDSRLSPGGSLADAWAHQEGTHPKDRNVEKLQVLLNCMTEIYYQFKKDKAERRLAYNEEQIHKFDKQKLYYHATKAMTHFTDECVKKYEAFLNKSEEWIRKMLHLRKQLLSLTNQCFDIEEEVSKYQEYTNELQETLPQKMFTASSGIKHTMTPIYPSSNTLVEMTLGMKKLKEEMEGVVKELAENNHILERFGSLTMDGGLRNVDCL
